# Assay results as given in PubChem BioAssay AID2685 (National Center for Advancing Translational Sciences (NCATS), 2010).
# The other results are listed elsewhere or left out. Shown are side measurements of this screen, not its main read-out; they come without a call. The list favours compounds with an active or inconclusive main result. The note in brackets gives the kind of curve behind each potency; many fits are weak.
# Experiment: qHTS Assay for Lipid Storage Modulators in Drosophila S3 Cells;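 for cell number change: cells counted by Cell Tracker Red CMTPX staining in the red channel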
# Settings: BODIPY lipid droplet fluorescence, 18-24 h; for cell number change: measured here: cell count max response, cells fed with added oleic acid
# Method in brief: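 Drosophila S3 cells got compounds at several concentrations plus oleic acid (400 uM solution). Laser-scanning cytometry with 488 nm excitation read lipid droplets at 500-530 nm and cells at 575-640 nm. Percent activity was relative to 20 uM Triacsin C.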
# [1] = measured here: lipid fluorescence (Fed channel) AC50, cells fed with added oleic acid
# [2] = measured here: cell number channel AC50, cells fed with added oleic acid
SMILES,cell number change,AC50 [1],AC50 [2]
CCOC(=O)CSC1=C(C#N)C(c2ccc(Cl)cc2)CC(=O)N1 (centres undefined),18.3%,"8.2 µM [rising, partial curve, poor fit]",
Cc1cccc(C)c1NC(=O)Cn1nc(C)n2cccc2c1=O,-17.5%,,
CCN(CC)CCCNC(=O)c1cn(CC)c2ccc(S(=O)(=O)N(C)C3CCCCC3)cc2c1=O,19.1%,"29.1 µM [falling, single point]",
CC(C)c1nc(N2CCN(C(=O)c3ccco3)CC2)c(C#N)c2c1COC(C)(C)C2,6.58%,"22.4 µM [rising, single point]",
O=C(Nc1ccncc1)Nc1cccc(F)c1,,"6.51 µM [rising, single point]","0.517 µM [rising, single point]"
COCCSc1nnc(NS(=O)(=O)c2ccccc2)s1,6.69%,"3.66 µM [falling, partial curve]",
COc1cccc(CN(C)C(=O)CCNC(=O)c2ccco2)c1,12.3%,"0.206 µM [falling, partial curve, poor fit]",
O=C(COC(=O)C1(c2ccccc2F)CCCC1)N1CCOCC1,32.1%,,"25.9 µM [rising, single point]"
O=C(Nc1cccc(NC(=O)c2cccs2)c1)c1ccc2c(c1)OCO2,27.5%,"1.46 µM [rising, full curve]","1.3 µM [rising, partial curve]"
Cc1cccc(S(=O)(=O)Nc2nc3ccccc3nc2OC(C)C)c1,24.3%,"18.4 µM [rising, partial curve]",
CCCCNC(=O)C(C#N)c1nc2ccccc2nc1N1CCCC1 (centres undefined),,"0.291 µM [rising, partial curve, poor fit]","1.46 µM [rising, partial curve]"
Cc1ccc(S(=O)(=O)N(C)C)cc1NC(=S)N(C)C1CCN(C)CC1,0.709%,,"0.58 µM [rising, partial curve, poor fit]"
CCN(C(=O)c1ccc(C)c(Br)c1)c1ccccc1,-13.4%,,
CCCCn1nnnc1NCc1cc(Cl)c(OC)c(OC)c1,80.6%,"0.146 µM [falling, full curve, poor fit]",
O=C(NCCO)c1cc2ccccc2c(=O)s1,-17.6%,"29.1 µM [falling, single point]",
O=C(CSCCc1ccccn1)Nc1cccnc1Cl,-9.89%,"16.4 µM [falling, partial curve]",
Cc1ccc(Nc2nnc(SCC(=O)c3ccc(Br)s3)s2)c(C)c1,16.7%,"16.4 µM [rising, partial curve]",
COc1cc(C(F)(F)F)ccc1C(=O)NCCc1ccco1,4.37%,,
O=C(c1cnn2c(C(F)(F)F)cc(-c3ccc(Br)cc3)nc12)N1CCOCC1,-24.6%,"14.6 µM [rising, partial curve, poor fit]",
CC(C)n1cc(C(=O)N2CCCC(N3CCN(c4cccc(Cl)c4)CC3)C2)cn1 (centres undefined),-2.89%,"0.58 µM [falling, full curve]",
O=C(CSc1ncn[nH]1)N1CCN(S(=O)(=O)c2ccc(Cl)cc2)CC1,37.5%,,"0.013 µM [rising, full curve]"

# Another view of part of the listing above.
SMILES	cell number change	AC50 [1]	AC50 [2]
Cc1ccc(S(=O)(=O)N(C)C)cc1NC(=S)N(C)C1CCN(C)CC1	0.709%		0.58 µM [rising, partial curve, poor fit]
CCN(C(=O)c1ccc(C)c(Br)c1)c1ccccc1	-13.4%		

# Shown with tabs: entries from further up.
SMILES	cell number change	AC50 [1]	AC50 [2]
Cc1ccc(S(=O)(=O)N(C)C)cc1NC(=S)N(C)C1CCN(C)CC1	0.709%		0.58 µM [rising, partial curve, poor fit]
CCN(C(=O)c1ccc(C)c(Br)c1)c1ccccc1	-13.4%		
CCCCn1nnnc1NCc1cc(Cl)c(OC)c(OC)c1	80.6%	0.146 µM [falling, full curve, poor fit]	

# (list continues)

SMILES,cell number change,AC50 [1],AC50 [2]
C/C(=C\c1ccccc1)CN1CCN(Cc2ccc(C)o2)C(CCO)C1 (centres undefined),10.9%,"25.9 µM [rising, partial curve, poor fit]",
O=C(C1CCCN(c2ncnc3c2nc2n3CCCCC2)C1)N1CCN(c2ccccc2F)CC1 (centres undefined),4.95%,"6.51 µM [rising, single point]",
CC(Oc1ccccc1)C(=O)Nc1ccc(C(N)=O)cc1 (centres undefined),4.7%,"0.461 µM [falling, single point]",
O=C(CN1CCOCC1)Nc1ccccc1C(=O)Nc1ccccc1,5.71%,,
CN(c1ccc(C(=O)N2CCN(Cc3ccc4c(c3)OCO4)CC2)cc1)S(=O)(=O)c1ccccc1,2.8%,,"1.46 µM [rising, partial curve, poor fit]"
O=C(NCc1ccccc1F)C1CCCN1C(=O)Nc1ccc(F)cc1 (centres undefined),28.4%,,"0.00461 µM [rising, full curve, poor fit]"
C=CCn1c(SCC(=O)Nc2ccc(NC(=O)c3ccco3)c(OC)c2)nnc1-c1ccncc1,-6.66%,"0.411 µM [rising, full curve]",
CC1(C)CC(=O)C(C=NCCN2CCN(C3CC(=O)N(c4cccc(Br)c4)C3=O)CC2)=C(O)C1 (centres undefined),,"0.116 µM [falling, full curve, poor fit]",
CN(C)C(CNC(=O)c1ccc2nc[nH]c2c1)c1ccccc1 (centres undefined),21.5%,"23.1 µM [falling, single point]",
COCC(=O)NC1CC2CCCC(C1)N2Cc1ccccc1 (centres undefined),-6.04%,,
O=C(Nc1ccc(OCc2ccccc2)cc1)c1ccccc1,-30.7%,,"16.4 µM [falling, single point]"
O=C(O)c1cnn(-c2ccccc2)c1-c1ccccc1,-10.1%,"23.1 µM [falling, partial curve]",
O=C(CCS(=O)(=O)c1ccccc1)Nc1ccc2c(c1)C(=O)NC2=O,-5.32%,"0.00461 µM [falling, full curve, poor fit]","2.59 µM [falling, single point]"
COc1ccccc1-c1ccc2nnc(SC)n2n1,19.7%,"6.51 µM [falling, single point]",
CCn1c(=O)c(C(=O)NNC(=O)c2ccccc2F)c(O)c2ccccc21,-31%,"29.1 µM [falling, single point]",
NC(=O)c1sc2nc3c(c(-c4ccco4)c2c1N)CCCC3,8.89%,"32.6 µM [rising, single point]",
COc1cc(C(=O)Nc2cccc(NC(=O)c3ccccc3)c2)cc(OC)c1OC,-23.3%,,
CC1CCc2nc3ccc(S(=O)(=O)N4CCC(C(=O)NC(C)c5ccccc5)CC4)cc3c(C(=O)O)c2C1 (centres undefined),,,"0.103 µM [rising, full curve, poor fit]"
C/C(=N\Nc1cc(-c2ccccc2)nc(-c2ccccc2)n1)c1ccc(O)c(C)c1,-25.9%,"29.1 µM [falling, single point]",
O=C(Nc1ccc(S(=O)(=O)N2CCN(Cc3ccccc3)CC2)cc1)c1cnccn1,-14.9%,,
Cc1cccc(C(=O)Nc2cccc(Br)c2)c1[N+](=O)[O-],20.1%,"6.51 µM [rising, partial curve, poor fit]",

SMILES,cell number change,AC50 [1],AC50 [2]
CCOc1ccccc1N(C)C(=O)C1CCN(S(=O)(=O)c2cccc3nonc23)CC1,2.99%,"2.91 µM [rising, single point]",
O=C(NCc1ccccc1)c1ccc(OCC2CCCO2)cc1 (centres undefined),-100%,"2.06 µM [rising, partial curve]","6.51 µM [falling, partial curve]"
CCCCn1c(N)c(N(CCC(C)C)C(=O)c2ccccc2C)c(=O)[nH]c1=O,3.63%,,
CC(C)(C)c1ccc(C(=O)Nc2nnc(SCC(=O)NCC3CCCO3)s2)cc1 (centres undefined),-13.6%,,
CCOc1cc(Cl)c(S(=O)(=O)NCCCn2ccnc2)cc1Cl,-38.7%,,"36.6 µM [falling, partial curve, poor fit]"
Cc1ccc(NC(=O)CSc2nnc(CNC(=O)C34CC5CC(CC(C5)C3)C4)n2-c2ccc(F)cc2)cc1,-48%,"16.4 µM [falling, partial curve]","16.4 µM [falling, single point]"
CCC(=O)NNC(=O)c1cc(COc2cc(Cl)cc(Cl)c2)on1,62.2%,,"20.6 µM [rising, single point]"
Cc1cccc(OCC(=O)Nc2ccccc2C(=O)N2CCOCC2)c1,,"6.51 µM [falling, single point]",
Cc1cc(F)ccc1S(=O)(=O)NCC(c1ccc2c(c1)OCO2)N1CCOCC1 (centres undefined),-14.4%,,
COCCCN1C(=O)/C(=C/c2ccc(CNS(=O)(=O)c3ccccc3)o2)C(C(=O)OC)=C1C,-23.4%,"0.00461 µM [falling, full curve, poor fit]",
Cc1ccc(S(=O)(=O)NC2CC(=O)N(c3ccc4c(c3)OCCO4)C2)cc1 (centres undefined),,"0.00411 µM [rising, full curve, poor fit]",
Cc1ccc(NC(=O)CN2C(=O)NC(C)(c3ccc(Cl)cc3)C2=O)cc1S(=O)(=O)N1CCOCC1 (centres undefined),-12.5%,"0.82 µM [rising, partial curve]",
CCN(C(=O)c1ccc(S(=O)(=O)N2CCCC2)cc1)C1CCS(=O)(=O)C1 (centres undefined),-12.3%,"10.3 µM [falling, partial curve]",
COc1ccc(S(=O)(=O)Cc2ccc(C(=O)NCC(OC)OC)o2)cc1,29.7%,,
CC1CN(C(=O)c2cc(S(=O)(=O)N3CCCCC3)ccc2Cl)CC(C)O1 (centres undefined),-7.46%,"1.16 µM [rising, partial curve]",
CCn1c2ccccc2c2cc(NC(=O)CSc3nnc(-c4cccc(F)c4)o3)ccc21,42.2%,"6.51 µM [rising, single point]","0.92 µM [rising, partial curve, poor fit]"
C[n+]1ccc(/C=C/c2cccs2)cc1,22.9%,"0.00517 µM [rising, full curve, poor fit]",
O=C(CSc1n[nH]c(-c2ccccc2)n1)NC1CCCCC1,-34.7%,,"29.1 µM [falling, single point]"
O=C(CN1CCN(Cc2ccc3c(c2)OCO3)CC1)N1CCc2[nH]c3ccccc3c2C1,-0.97%,,
CN(C)c1ccc(-c2n(C)c3ccccc3[n+]2C)cc1,-75.1%,"29.1 µM [falling, single point]","13 µM [falling, partial curve]"
